Measured values published in PubChem BioAssay AID2551 (National Center for Advancing Translational Sciences (NCATS), 2010).
Values joined by “and” are separate entries in the source; they are usually repeats but may differ in a detail not shown here. Equal entries are not always repeated. Screen size: about 310,000 compounds; about 17,000 (5.5%) were called active. The inconclusive results got no clear call from the source; some entries with a clear call stand among them for comparison. Calls follow the shape of the dose curve; as a rule, active = well fitted inhibition curve with a large enough effect; inconclusive = small, poorly fitted or top-dose-only effect, or effect the other way; inactive = no such curve, though single readings can be large or run the other way. Potencies beside an inconclusive call are fits to weak or partial responses and may not hold up.
Also: nearly all actives have a fitted effect of over 60% in size.
Potency is read from the fitted curve at half-maximal effect.

Protein sequences, listed by entry. Tags and fused reporters are not part of them. Lines headed by an entry give the natural chain unless they say otherwise; changes in a name come on top.
UniProt P51450: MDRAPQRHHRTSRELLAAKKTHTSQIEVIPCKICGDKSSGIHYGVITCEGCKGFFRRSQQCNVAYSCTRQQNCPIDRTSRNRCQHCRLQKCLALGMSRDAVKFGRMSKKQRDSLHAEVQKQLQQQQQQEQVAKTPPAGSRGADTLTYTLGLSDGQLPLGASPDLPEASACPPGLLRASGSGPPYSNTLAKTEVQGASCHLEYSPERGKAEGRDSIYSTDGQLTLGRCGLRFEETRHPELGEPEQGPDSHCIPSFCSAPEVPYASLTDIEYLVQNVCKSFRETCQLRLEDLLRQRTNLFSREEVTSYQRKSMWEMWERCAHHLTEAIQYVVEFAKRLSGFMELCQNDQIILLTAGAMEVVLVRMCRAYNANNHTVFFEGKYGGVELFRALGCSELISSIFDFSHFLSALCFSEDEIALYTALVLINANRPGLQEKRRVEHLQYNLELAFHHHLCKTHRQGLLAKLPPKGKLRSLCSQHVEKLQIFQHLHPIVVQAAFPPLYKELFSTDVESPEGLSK

The molecules below were run against Nuclear receptor ROR-gamma (Mus musculus) (UniProt P51450) (assay: qHTS for inhibitors of ROR gamma transcriptional activity). Conditions: Drosophila S2 Gal4-RORgamma UAS-luciferase reporter, 20 h; series mostly up to 53.6 µM.
In short: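 Luciferase reporter read in Schneider cells carrying Gal4-RORγ (mouse) and UAS-Photinus luciferase; cells given compound 1 h before 700 uM copper sulfate induction, then incubated 20 h at ambient temperature.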
With `C/C(=N\NC(=S)Nc1ccccc1C)c1cc2ccccc2o1` the Potency was active: 1.26 µM. `O=C(Nc1nnc(-c2ccco2)o1)C1CC1` was tested, and the Potency was active: 10 µM. With `CC1(C)CC2(CC(c3ccc(F)cc3)c3ccc(O)cc3O2)NC(=S)N1` (stereo not drawn) the Potency was inconclusive: 10 µM [inhibitor, partial curve]. With `CC(=O)N1c2c(cc(Br)cc2S(=O)(=O)N2CCN(c3ccccc3F)CC2)CC1C` (stereo not drawn) the Potency was inconclusive: 0.708 µM [activator, single point]. In the case of `COc1ccc(OCCC(=O)N2CCCCC2)cc1`, the Potency was inconclusive: 6.31 µM [activator, single point]. With `O=C1c2ccccc2NC(c2ccc(-c3ccc(Br)cc3)o2)N1O` (stereo not drawn) the Potency was active: 7.08 µM. With `Cc1cccc(NCC(=O)N/N=C\c2ccc[nH]2)c1` the Potency was active: 8.91 µM. `O=c1[nH]c(CSc2ncc(-c3ccc(F)cc3)n2Cc2ccco2)nc2ccccc12` was tested, and the Potency was inconclusive: 35.5 µM [inhibitor, single point]. With `O=C(CCC(=O)NNC(=O)Cc1ccccc1)NCc1ccccc1` the Potency was “inactive”. `O=C(NCCCCc1ccccc1)Nc1cccc(F)c1` was tested, and the Potency was inconclusive: 17.8 µM [activator, single point]. With `COc1ccc(N=Nc2nc(-c3ccccc3)c(-c3ccccc3)[nH]2)cc1` the Potency was active: 2.24 µM. `N#C/C(=C\c1ccncc1)c1nc2ccccc2[nH]1` was tested, and the Potency was “inactive”. For `COc1ccc(C(=O)Nc2nnc(S(=O)(=O)N3CCC(C)CC3)s2)cc1OC`, the Potency was “inactive”. In the case of `COc1ccc(C)cc1NC(=O)NCCCCc1ccccc1`, the Potency was “inactive”. With `O=C(c1ccco1)N1CCN(Cc2cn[nH]c2-c2cccc3ccccc23)CC1` the Potency was “inactive”. `C/C(=N\NC(=O)C(N)=O)c1cccc(C(F)(F)F)c1` was tested, and the Potency was “inactive”. With `Clc1ccc(-n2ncc3c(N4CCCCCC4)ncnc32)cc1` the Potency was inconclusive: 3.98 µM [inhibitor, partial curve, poor fit]. In the case of `CC(C)C(NC(=O)C12CC3CC(CC(C3)C1)C2)C(=O)NC1=NCCS1` (stereo not drawn), the Potency was active: 17.8 µM. `C#CCN(C(=O)c1cc(COc2ccc(C)c(C)c2)on1)C1CCCCC1` was tested, and the Potency was inconclusive: 31.6 µM [activator, single point]. With `CN([C@@H](Cc1ccc(OS(=O)(=O)c2cccc3cnccc23)cc1)C(=O)N1CCN(c2ccccc2)CC1)S(=O)(=O)c1cccc2cnccc12` the Potency was “inactive and inconclusive: 11.2 µM [activator, partial curve]”. For `Cc1nccn1CC(O)COc1ccccc1` (stereo not drawn), the Potency was inconclusive: 0.0056 µM [inhibitor, full curve, poor fit]. With `COc1cccc(/C=N/N=C(\N)c2nonc2N)c1O` the Potency was active: 0.1 µM. For `Cc1ccc(-c2c[n+](CC(=O)OCc3ccccc3)c3n2CCC3)cc1`, the Potency was “inactive”. `CN(CCO)c1ncnc2nc[nH]c12` was tested, and the Potency was inconclusive: 35.5 µM [inhibitor, single point]. `CCc1c(C(=O)N/N=C/c2ccc(OCc3ccc(F)cc3)c(OC)c2)nnn1-c1nonc1N` was tested, and the Potency was inconclusive: 7.94 µM [activator, partial curve]. In the case of `Cc1cc2oc(=O)cc(-c3ccccc3)c2c(C)c1-c1ccc(N(C)C)cc1`, the Potency was “inactive”. `N#CC(C(=O)c1ccco1)c1ccccn1` (stereo not drawn) was tested, and the Potency was “inactive”. In the case of `CCn1c(C)nc2cc(NC(=O)Nc3cccc(C(C)=O)c3)ccc21`, the Potency was active: 15.8 µM. In the case of `Cc1[nH]n(C(N)=S)c(=O)c1N=Nc1cc(-c2ccc(Br)cc2)[nH]n1`, the Potency was active: 1.58 µM. `CCOCCCNC(=O)C(c1ccc(OC)cc1)N(Cc1ccc2c(c1)OCO2)C(=O)CNC(C)=O` (stereo not drawn) was tested, and the Potency was inconclusive: 2.24 µM [activator, partial curve]. With `CCOC(=O)Cc1c(C)nc2c(-c3ccc(Cl)cc3)c(C)nn2c1C` the Potency was inconclusive: 31.6 µM [activator, single point]. With `COc1ccccc1NC(=O)C1=C(C)Nc2nc(-c3ccccc3)nn2C1c1ccccn1` (stereo not drawn) the Potency was “inactive”. In the case of `O=C(Nc1nnc(-c2ccccc2F)s1)C1CCCO1` (stereo not drawn), the Potency was “inactive”. In the case of `O=C(NCc1ccncc1)c1ccc(Oc2ccccc2)cc1`, the Potency was inconclusive: 14.1 µM [inhibitor, single point]. `COc1ccc2nc(SCC(=O)N3CC(=O)Nc4ccccc43)c(C#N)cc2c1` was tested, and the Potency was “inactive”. In the case of `O=c1c2ccccc2cnn1Cc1n[nH]c(=S)n1-c1ccc(F)c(Cl)c1`, the Potency was inconclusive: 12.6 µM [inhibitor, partial curve, poor fit]. With `CC(=O)c1cccc(NC(=O)c2ccc(CN3CCc4ccccc4C3)cc2)c1` the Potency was “inactive”. In the case of `O=C(NC(=S)NC(CO)Cc1ccccc1)c1ccc(F)cc1` (stereo not drawn), the Potency was active: 11.2 µM. `COc1ccc(-n2c(-c3ccccc3)cc3c2CCCC3=O)cc1` was tested, and the Potency was inconclusive: 35.5 µM [inhibitor, single point]. `NC(=O)CSc1nnc(Cn2c(=O)sc3ccccc32)n1-c1cccc(Cl)c1` was tested, and the Potency was inconclusive: 11.2 µM [activator, partial curve]. In the case of `CCN(C(=O)CSc1nnc(-c2ccccc2)o1)c1c(N)n(Cc2ccccc2)c(=O)[nH]c1=O`, the Potency was inconclusive: 2.51 µM [activator, full curve]. `COC(=O)c1ccc(CSc2nc3c(c(=O)n2-c2ccc(F)cc2)SCC3)o1` was tested, and the Potency was inconclusive: 0.0355 µM [inhibitor, full curve, poor fit]. `COCCNC(=O)CN(Cc1cccs1)C(=O)CCC(=O)Nc1nccs1` was tested, and the Potency was inconclusive: 5.01 µM [activator, partial curve]. For `O=C(Nc1ccn(Cc2ccccc2F)n1)c1ccc(COc2ccc(Br)cc2)cc1`, the Potency was inconclusive: 1.12 µM [activator, full curve]. In the case of `Cc1cc(-c2n[nH]c(=S)o2)c(C)n1-c1ccccc1`, the Potency was active: 12.6 µM. With `Cc1ccc(/C=N/NC(=O)c2ccc(C(=O)N/N=C/c3ccc(C)s3)o2)s1` the Potency was active: 8.91 µM. With `CS(=O)(=O)N(CC(=O)N/N=C/c1cc2c(cc1Br)OCO2)c1ccccc1Br` the Potency was inconclusive: 7.08 µM [activator, full curve, poor fit]. In the case of `O=C(NCc1ccccc1)c1cc(S(=O)(=O)N2CCC3(CC2)OCCO3)ccc1F`, the Potency was inconclusive: 35.5 µM [activator, single point].
